The experiment has as its target LYN-HA (UniProt P07948). Nature of the experiment: co-IP; P-STAT3-Flag and LYN-HA co-transfected into SiHa cells, collected after 24 h; lysed in RIPA buffer with phosphatase/protease inhibitors; precipitated with anti-HA tag antibody on Protein A+G Sepharose beads at 4°C; blot with anti-Flag tag antibody.

Protein sequences, listed by entry. Tags and fused reporters are not part of them.
UniProt P07948: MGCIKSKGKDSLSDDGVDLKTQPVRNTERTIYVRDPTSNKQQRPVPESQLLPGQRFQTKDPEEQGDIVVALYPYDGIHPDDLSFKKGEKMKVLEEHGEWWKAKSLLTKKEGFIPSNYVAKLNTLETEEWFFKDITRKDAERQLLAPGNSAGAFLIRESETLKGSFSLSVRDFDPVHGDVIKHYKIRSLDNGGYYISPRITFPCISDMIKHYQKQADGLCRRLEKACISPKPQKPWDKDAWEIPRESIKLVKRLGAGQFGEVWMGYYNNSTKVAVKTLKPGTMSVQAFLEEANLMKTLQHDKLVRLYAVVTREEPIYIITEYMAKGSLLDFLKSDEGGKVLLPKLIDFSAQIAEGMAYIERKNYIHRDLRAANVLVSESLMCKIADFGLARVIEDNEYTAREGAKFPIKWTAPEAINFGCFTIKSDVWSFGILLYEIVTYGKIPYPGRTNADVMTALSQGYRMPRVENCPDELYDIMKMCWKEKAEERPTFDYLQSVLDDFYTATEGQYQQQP
UniProt P40763: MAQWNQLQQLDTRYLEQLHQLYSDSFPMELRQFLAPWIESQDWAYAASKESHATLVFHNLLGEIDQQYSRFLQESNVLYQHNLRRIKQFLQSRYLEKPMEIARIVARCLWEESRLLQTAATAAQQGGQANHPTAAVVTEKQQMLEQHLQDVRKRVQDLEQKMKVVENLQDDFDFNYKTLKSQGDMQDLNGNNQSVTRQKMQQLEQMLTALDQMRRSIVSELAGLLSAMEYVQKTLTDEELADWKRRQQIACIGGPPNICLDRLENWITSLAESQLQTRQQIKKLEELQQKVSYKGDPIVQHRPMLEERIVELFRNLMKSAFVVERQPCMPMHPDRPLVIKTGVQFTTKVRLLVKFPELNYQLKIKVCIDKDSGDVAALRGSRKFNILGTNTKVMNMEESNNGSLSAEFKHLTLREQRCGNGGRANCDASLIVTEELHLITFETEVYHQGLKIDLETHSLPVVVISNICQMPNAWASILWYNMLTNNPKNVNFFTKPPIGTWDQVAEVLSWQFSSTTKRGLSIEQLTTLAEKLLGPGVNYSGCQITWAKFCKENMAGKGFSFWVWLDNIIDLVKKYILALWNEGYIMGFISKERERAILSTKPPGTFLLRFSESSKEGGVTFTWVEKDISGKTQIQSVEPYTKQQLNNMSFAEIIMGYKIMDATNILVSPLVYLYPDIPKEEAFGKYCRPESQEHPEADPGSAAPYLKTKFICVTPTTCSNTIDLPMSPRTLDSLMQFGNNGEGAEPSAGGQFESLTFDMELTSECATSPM

No constants are given. Whether binding was seen depends on the method and setting. Binding seen in cells or lysates may run through a third protein. Some entries that bind do so weakly or less than the wild type.

In publication PMC5342753 one finds binding data, which are given here for one substance.

“P-STAT3-Flag (from UniProt P40763 1-770)”: the binding entry is “binds”.
